In PMC9191741:
For at least one entry, the source does not settle the construct or the ends of the probe. Where cells or extracts were used, other partners may take part. For part of these data: Negatives hold for the conditions tested. For part of these data: Tags and fusion partners may be left off the protein sequences shown. For part of these data: The comparison behind a weaker result is the experiment's own reference, which may not be listed here.

Columns and labels:
[1] = system: KLF15-RFP-His (Helicoverpa armigera); test: EMSA; conditions: 10 mM Tris-HCl pH 7.5, 1 mM MgCl2, 40 mM KCl, 0.1 mg/ml BSA, 5% glycerol, ~15 ug nuclear protein, 200 fmol FAM probe, room temperature 15 min, 6% PAGE in 0.5x TBE, protein in an extract, protein details: C-terminal RFP-His (from name), label: FAM
[2] = target: T1, EcR-RFP-His (Helicoverpa armigera) (UniProt B9UCQ4); test: EMSA; conditions: cells treated with 20E or DMSO; 10 mM Tris-HCl pH 7.5, 1 mM MgCl2, 40 mM KCl, 0.1 mg/ml BSA, 5% glycerol; ~15 ug nuclear protein, 200 fmol FAM probe, room temperature 15 min; 6% PAGE in 0.5x TBE; protein in an extract; protein details: C-terminal RFP-His (from name); label: FAM
T1 sequence (looked up, limits assumed): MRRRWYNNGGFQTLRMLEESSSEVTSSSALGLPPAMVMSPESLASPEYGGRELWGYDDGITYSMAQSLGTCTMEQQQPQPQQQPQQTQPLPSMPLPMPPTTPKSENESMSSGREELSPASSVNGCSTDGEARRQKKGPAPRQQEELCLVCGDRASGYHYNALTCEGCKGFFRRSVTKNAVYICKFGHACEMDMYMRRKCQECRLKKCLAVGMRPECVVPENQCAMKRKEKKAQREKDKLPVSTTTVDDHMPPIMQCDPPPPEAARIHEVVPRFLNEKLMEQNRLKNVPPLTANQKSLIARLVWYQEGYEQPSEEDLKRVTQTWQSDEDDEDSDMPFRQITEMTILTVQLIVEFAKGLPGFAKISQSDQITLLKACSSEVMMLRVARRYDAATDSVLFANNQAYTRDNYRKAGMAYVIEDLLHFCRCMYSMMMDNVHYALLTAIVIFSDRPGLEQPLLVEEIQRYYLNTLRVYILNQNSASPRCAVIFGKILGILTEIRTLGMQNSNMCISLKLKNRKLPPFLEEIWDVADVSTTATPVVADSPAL

[3] = target: T1, EcR-RFP-His (Helicoverpa armigera); test: EMSA with supershift; conditions: cells treated with 20E (5 uM, 6 h); 10 mM Tris-HCl pH 7.5, 1 mM MgCl2, 40 mM KCl, 0.1 mg/ml BSA, 5% glycerol; ~15 ug nuclear protein, 200 fmol FAM probe, room temperature 15 min; 6% PAGE in 0.5x TBE; protein in an extract; protein details: C-terminal RFP-His (from name); label: FAM
[4] = system: KLF15-RFP-His (Helicoverpa armigera); test: EMSA with supershift and competition; conditions: 20E-treated cells, 50-fold unlabeled probe reduces the shift; 10 mM Tris-HCl pH 7.5, 1 mM MgCl2, 40 mM KCl, 0.1 mg/ml BSA, 5% glycerol; ~15 ug nuclear protein, 200 fmol FAM probe, room temperature 15 min; 6% PAGE in 0.5x TBE; protein in an extract; protein details: C-terminal RFP-His (from name); label: FAM

Sequence: CCCGCGGTTTCACCCTCGTCCTGTGGGAACTGCTGCCCG (double strand) [Atg8 promoter KLF bs probe WT]
- binding result [1]: binds

Sequence: CCCGCGGTTTTCCCATCGTCCTGTGGGAACTGCTGCCCG (double strand) [Atg8 promoter KLF bs probe MT]
- binding result [1]: no binding

Sequence: TCTCAATTACATGTAATAAACGGCTTTGTTAA (double strand) [Klf15 promoter EcRE probe MT]
- binding result [2]: no binding

Sequence: TCTCAATTACGTTCAATAAACGGCTTTGTTAA (double strand) [Klf15 promoter EcRE probe WT]
- binding result [3]: binds

Sequence: TGAAAACACCCTGACGCCATCTTGTGTTGAAGCTCGCGCG (double strand) [Pepck promoter KLF bs probe WT]
- binding result [4]: binds

Sequence: TGAAAATCCCATGACGCCATCTTGTGTTGAAGCTCGCGCG (double strand) [Pepck promoter KLF bs probe MT]
- binding result ([1]; point mutation inhibited binding): binds more weakly
